Experimental data taken from patent US20040171090A1, “Anti-tumor antigen against HTLV-I tumor or antigen epitope thereof” (priority 2001, published 2004).
Part of at least one peptide drawing is inferred or uncertain, most often the ends. Peptide text beside a SMILES is read from it.

How the values were obtained:
[1] = test system: HTLV-I-specific CTL cell lines; conditions: for CTL sensitivity of target cells sensitized with 9 amino acid synthetic peptides (FIG. 8): G14 cells, 9 mer peptides, same method as for the 15-24 mers
[2] = test system: HTLV-I-infected tumor cells, FPM1-V1AX; experiment: Vaccine effect: splenic T cells of immunized nu/+ rats transferred to nu/nu rats given FPM1-V1AX, tumor volume; type: in vivo, rat; conditions: nu/+ rats immunized subcutaneously twice, two-week interval, 100 μg peptide and/or ISS-ODN

| SMILES | CTL sensitivity of target cells sensitized with 9 amino acid synthetic peptides (FIG. 8) [1] | suppression effect on tumor proliferation by splenic T cells from immunized rats (tumor volume, FIG. 12) [2] | CTL sensitivity of target cells treated with serially diluted peptides (FIG. 9) ([1]; G14 cells treated 1 hour with serially diluted peptide, E/T 10) |
| --- | --- | --- | --- |
| CC(C)C[C@H](NC(=O)[C@H](Cc1ccccc1)NC(=O)[C@H](C)N)C(=O)N[C@H](C(=O)N[C@@H](CC(N)=O)C(=O)N[C@H](C(=O)N1CCC[C@H]1C(=O)N[C@@H](Cc1ccc(O)cc1)C(=O)N[C@@H](CCCCN)C(=O)O)C(C)C)[C@@H](C)O [Tax 181-189] (H-AFLTNVPYK-OH; N-terminus and C-terminus assumed) | particularly strong CTLs sensitivity | – | – |
| CC(C)C[C@H](NC(=O)[C@H](Cc1ccccc1)NC(=O)[C@H](C)NC(=O)CN)C(=O)N[C@H](C(=O)N[C@@H](CC(N)=O)C(=O)N[C@H](C(=O)N1CCC[C@H]1C(=O)N[C@@H](Cc1ccc(O)cc1)C(=O)O)C(C)C)[C@@H](C)O [Tax 180-188] (H-GAFLTNVPY-OH; N-terminus and C-terminus assumed) | particularly strong CTLs sensitivity | not recognized | strong CTL sensitivity |
| CC(C)C[C@H](NC(=O)[C@@H](N)Cc1ccccc1)C(=O)N[C@H](C(=O)N[C@@H](CC(N)=O)C(=O)N[C@H](C(=O)N1CCC[C@H]1C(=O)N[C@@H](Cc1ccc(O)cc1)C(=O)N[C@@H](CCCCN)C(=O)N[C@@H](CCCNC(=N)N)C(=O)O)C(C)C)[C@@H](C)O [Tax 182-190] (H-FLTNVPYKR-OH; N-terminus and C-terminus assumed) | exhibited CTL sensitivity | – | – |
